No constants are given. Whether binding was seen depends on the method and setting. For part of these data: Binding seen in cells or lysates may run through a third protein. Some binding calls cover weakened binding; strength is not graded here. Sequences can lack the tags named with a protein. Each block holds one binder with its values, some of them ahead of it.
Key:
[1] = biological target: T1, VN-tagged Spc72 (VN173-Spc72) (S. cerevisiae) (UniProt P39723); assay: split reporter; BiFC in living diploid S. cerevisiae cells co-expressing VN-Spc72 and VC-Atg11, grown in YEP with 2% galactose for 3 h; Venus signal imaged with FM4-64 (vacuolar membrane) or Spc42-mCherry (SPBs)
T1 sequence: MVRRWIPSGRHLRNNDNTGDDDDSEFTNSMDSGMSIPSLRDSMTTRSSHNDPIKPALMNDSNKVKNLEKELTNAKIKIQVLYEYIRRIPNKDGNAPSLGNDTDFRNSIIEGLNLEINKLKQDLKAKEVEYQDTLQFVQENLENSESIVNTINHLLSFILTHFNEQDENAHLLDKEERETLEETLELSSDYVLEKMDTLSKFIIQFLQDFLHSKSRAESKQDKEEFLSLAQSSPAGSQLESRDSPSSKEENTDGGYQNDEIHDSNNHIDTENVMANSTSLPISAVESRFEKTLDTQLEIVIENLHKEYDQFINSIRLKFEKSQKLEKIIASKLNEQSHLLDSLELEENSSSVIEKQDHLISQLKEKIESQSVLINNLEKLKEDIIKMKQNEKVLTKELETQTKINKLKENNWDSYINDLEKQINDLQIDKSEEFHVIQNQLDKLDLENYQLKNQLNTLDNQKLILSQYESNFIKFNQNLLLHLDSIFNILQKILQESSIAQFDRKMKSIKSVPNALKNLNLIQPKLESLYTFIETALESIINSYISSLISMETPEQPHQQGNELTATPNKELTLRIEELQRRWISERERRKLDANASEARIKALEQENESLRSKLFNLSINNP

[2] = biological target: T2, Spc72, full length, Gal4 AD or BD fusion (yeast two-hybrid) (S. cerevisiae) (UniProt P39723); assay: two-hybrid; Gal4 AD/BD fusions from pGADC1 and pGBDC1 co-transformed into strain PJ69-4A; scored by white colonies on medium with 6 µg/mL adenine and/or growth on SD -trp -leu -his with 2 mM 3-AT, 30 °C
T2 sequence: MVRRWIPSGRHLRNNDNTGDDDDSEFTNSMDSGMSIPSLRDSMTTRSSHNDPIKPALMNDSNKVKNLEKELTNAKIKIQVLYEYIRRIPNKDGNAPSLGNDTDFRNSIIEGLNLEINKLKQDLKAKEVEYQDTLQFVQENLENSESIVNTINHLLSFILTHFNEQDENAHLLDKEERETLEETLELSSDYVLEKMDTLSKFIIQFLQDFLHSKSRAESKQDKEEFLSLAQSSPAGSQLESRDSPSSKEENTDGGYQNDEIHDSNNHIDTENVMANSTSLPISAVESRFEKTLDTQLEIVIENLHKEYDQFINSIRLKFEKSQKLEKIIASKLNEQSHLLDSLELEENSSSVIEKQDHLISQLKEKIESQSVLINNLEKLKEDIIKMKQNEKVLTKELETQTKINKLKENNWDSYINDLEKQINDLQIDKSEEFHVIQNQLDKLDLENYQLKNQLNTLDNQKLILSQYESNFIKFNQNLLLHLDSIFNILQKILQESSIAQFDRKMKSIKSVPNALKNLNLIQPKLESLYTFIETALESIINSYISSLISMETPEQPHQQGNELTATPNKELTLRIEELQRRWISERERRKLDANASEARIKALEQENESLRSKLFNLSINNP

[3] = biological target: T3, Atg11, full length, Gal4 AD or BD fusion (yeast two-hybrid) (S. cerevisiae) (UniProt Q12527); assay: as above
T3 sequence: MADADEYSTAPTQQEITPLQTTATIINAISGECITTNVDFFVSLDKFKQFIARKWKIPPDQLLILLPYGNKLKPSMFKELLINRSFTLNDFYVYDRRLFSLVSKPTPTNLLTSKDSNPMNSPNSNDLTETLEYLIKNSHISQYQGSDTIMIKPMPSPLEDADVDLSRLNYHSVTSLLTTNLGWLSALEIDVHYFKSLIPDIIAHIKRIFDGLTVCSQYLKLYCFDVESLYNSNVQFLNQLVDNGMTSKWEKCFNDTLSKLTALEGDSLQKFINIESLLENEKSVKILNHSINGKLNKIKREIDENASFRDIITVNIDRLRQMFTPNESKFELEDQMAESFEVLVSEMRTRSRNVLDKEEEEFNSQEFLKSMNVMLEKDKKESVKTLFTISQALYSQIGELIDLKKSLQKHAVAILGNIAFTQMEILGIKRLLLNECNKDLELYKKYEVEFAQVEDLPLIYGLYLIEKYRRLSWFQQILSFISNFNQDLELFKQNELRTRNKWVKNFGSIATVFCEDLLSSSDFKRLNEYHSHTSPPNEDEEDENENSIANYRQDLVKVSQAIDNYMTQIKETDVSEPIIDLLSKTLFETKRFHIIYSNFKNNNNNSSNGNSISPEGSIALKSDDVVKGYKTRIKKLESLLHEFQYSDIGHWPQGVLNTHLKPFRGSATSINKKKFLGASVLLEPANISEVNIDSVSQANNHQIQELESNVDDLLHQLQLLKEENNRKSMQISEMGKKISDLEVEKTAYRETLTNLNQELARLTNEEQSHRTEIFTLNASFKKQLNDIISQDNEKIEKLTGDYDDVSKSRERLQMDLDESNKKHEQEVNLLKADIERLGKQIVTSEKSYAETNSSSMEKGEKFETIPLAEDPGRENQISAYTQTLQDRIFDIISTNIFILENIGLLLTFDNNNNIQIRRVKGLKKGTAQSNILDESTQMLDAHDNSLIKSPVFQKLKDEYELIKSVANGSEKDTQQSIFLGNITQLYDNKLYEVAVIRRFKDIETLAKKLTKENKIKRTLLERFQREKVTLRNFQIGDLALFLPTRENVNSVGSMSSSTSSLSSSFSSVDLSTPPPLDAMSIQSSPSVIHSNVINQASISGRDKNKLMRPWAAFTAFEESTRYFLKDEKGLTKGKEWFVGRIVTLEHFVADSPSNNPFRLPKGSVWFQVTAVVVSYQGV

binding [1]: binds
B1: VC-tagged Atg11 (VC155-Atg11) (protein, UniProt Q12527 1-1178)
chain: MADADEYSTAPTQQEITPLQTTATIINAISGECITTNVDFFVSLDKFKQFIARKWKIPPDQLLILLPYGNKLKPSMFKELLINRSFTLNDFYVYDRRLFSLVSKPTPTNLLTSKDSNPMNSPNSNDLTETLEYLIKNSHISQYQGSDTIMIKPMPSPLEDADVDLSRLNYHSVTSLLTTNLGWLSALEIDVHYFKSLIPDIIAHIKRIFDGLTVCSQYLKLYCFDVESLYNSNVQFLNQLVDNGMTSKWEKCFNDTLSKLTALEGDSLQKFINIESLLENEKSVKILNHSINGKLNKIKREIDENASFRDIITVNIDRLRQMFTPNESKFELEDQMAESFEVLVSEMRTRSRNVLDKEEEEFNSQEFLKSMNVMLEKDKKESVKTLFTISQALYSQIGELIDLKKSLQKHAVAILGNIAFTQMEILGIKRLLLNECNKDLELYKKYEVEFAQVEDLPLIYGLYLIEKYRRLSWFQQILSFISNFNQDLELFKQNELRTRNKWVKNFGSIATVFCEDLLSSSDFKRLNEYHSHTSPPNEDEEDENENSIANYRQDLVKVSQAIDNYMTQIKETDVSEPIIDLLSKTLFETKRFHIIYSNFKNNNNNSSNGNSISPEGSIALKSDDVVKGYKTRIKKLESLLHEFQYSDIGHWPQGVLNTHLKPFRGSATSINKKKFLGASVLLEPANISEVNIDSVSQANNHQIQELESNVDDLLHQLQLLKEENNRKSMQISEMGKKISDLEVEKTAYRETLTNLNQELARLTNEEQSHRTEIFTLNASFKKQLNDIISQDNEKIEKLTGDYDDVSKSRERLQMDLDESNKKHEQEVNLLKADIERLGKQIVTSEKSYAETNSSSMEKGEKFETIPLAEDPGRENQISAYTQTLQDRIFDIISTNIFILENIGLLLTFDNNNNIQIRRVKGLKKGTAQSNILDESTQMLDAHDNSLIKSPVFQKLKDEYELIKSVANGSEKDTQQSIFLGNITQLYDNKLYEVAVIRRFKDIETLAKKLTKENKIKRTLLERFQREKVTLRNFQIGDLALFLPTRENVNSVGSMSSSTSSLSSSFSSVDLSTPPPLDAMSIQSSPSVIHSNVINQASISGRDKNKLMRPWAAFTAFEESTRYFLKDEKGLTKGKEWFVGRIVTLEHFVADSPSNNPFRLPKGSVWFQVTAVVVSYQGV

binding [2]: binds
B2: Atg11, full length, Gal4 AD or BD fusion (yeast two-hybrid) (protein, UniProt Q12527 1-1178)
chain: MADADEYSTAPTQQEITPLQTTATIINAISGECITTNVDFFVSLDKFKQFIARKWKIPPDQLLILLPYGNKLKPSMFKELLINRSFTLNDFYVYDRRLFSLVSKPTPTNLLTSKDSNPMNSPNSNDLTETLEYLIKNSHISQYQGSDTIMIKPMPSPLEDADVDLSRLNYHSVTSLLTTNLGWLSALEIDVHYFKSLIPDIIAHIKRIFDGLTVCSQYLKLYCFDVESLYNSNVQFLNQLVDNGMTSKWEKCFNDTLSKLTALEGDSLQKFINIESLLENEKSVKILNHSINGKLNKIKREIDENASFRDIITVNIDRLRQMFTPNESKFELEDQMAESFEVLVSEMRTRSRNVLDKEEEEFNSQEFLKSMNVMLEKDKKESVKTLFTISQALYSQIGELIDLKKSLQKHAVAILGNIAFTQMEILGIKRLLLNECNKDLELYKKYEVEFAQVEDLPLIYGLYLIEKYRRLSWFQQILSFISNFNQDLELFKQNELRTRNKWVKNFGSIATVFCEDLLSSSDFKRLNEYHSHTSPPNEDEEDENENSIANYRQDLVKVSQAIDNYMTQIKETDVSEPIIDLLSKTLFETKRFHIIYSNFKNNNNNSSNGNSISPEGSIALKSDDVVKGYKTRIKKLESLLHEFQYSDIGHWPQGVLNTHLKPFRGSATSINKKKFLGASVLLEPANISEVNIDSVSQANNHQIQELESNVDDLLHQLQLLKEENNRKSMQISEMGKKISDLEVEKTAYRETLTNLNQELARLTNEEQSHRTEIFTLNASFKKQLNDIISQDNEKIEKLTGDYDDVSKSRERLQMDLDESNKKHEQEVNLLKADIERLGKQIVTSEKSYAETNSSSMEKGEKFETIPLAEDPGRENQISAYTQTLQDRIFDIISTNIFILENIGLLLTFDNNNNIQIRRVKGLKKGTAQSNILDESTQMLDAHDNSLIKSPVFQKLKDEYELIKSVANGSEKDTQQSIFLGNITQLYDNKLYEVAVIRRFKDIETLAKKLTKENKIKRTLLERFQREKVTLRNFQIGDLALFLPTRENVNSVGSMSSSTSSLSSSFSSVDLSTPPPLDAMSIQSSPSVIHSNVINQASISGRDKNKLMRPWAAFTAFEESTRYFLKDEKGLTKGKEWFVGRIVTLEHFVADSPSNNPFRLPKGSVWFQVTAVVVSYQGV

binding [3]: no binding
B3: Cnm67, full length, Gal4 AD or BD fusion (yeast two-hybrid) (protein, UniProt P53865 1-581)
chain: MTDFDLMNFPFHERLDSPVSENGEIKDGEPIPQNWLNENHVGKSILPLFVNPEDVINCNFSNARDSYEENKSPSMDQMNYARNTSYQESPGLQERPKNEKDKSPIGTDVHKKDVPNFIHSTPRENSSKHFTRANEQASAQPTDEHTSPDISIEDCNGAKIFLQNSLSKEDFRMLENVILGYQKKVIELGRDNLRQEERANSLQKELEAATKSNDKTLDNKKKIEEQTVLIENLTKDLSLNKEMLEKANDTIQTKHTALLSLTDSLRKAELFEIPIGILFFDLYDSEENSSKLDHILQEKYPNIKGFLCASQQEELSRISQRFKNAKAEAEDLRNELENKKIEIQTMREKNNTLIGTNKTLSKQNKILCDKFDKLTIDEKEILKGCNEEIKIKLERLNERLGSWEKSKEKYETSLKDKEKMLADAEKKTNTLSKELDNLRSRFGNLEGNTSERITIKNILQSRPDISAEECNFLMVEQIDSANLTTLQNTVKEIVLAVGIPYPKLRRKIPLLAIKLKYENIMLSNFAQRLHRQVYSQEMNLKKFTDQAYYDFMSTRRMDSIDHHLERCLDHLYDHILEKMVK
